# Test results from patent US8153609B2 (priority 2004, dated 2012).
# pIC50: −log10 of the molar value. The match of structure and compound is tentative.
# Experiments:
# [1] = target: T1, PKA type Iα (RIα/Cα) holoenzyme (Homo sapiens, UniProt P10644); experiment: Cook coupled spectrophotometric kinase assay, suppression (antagonist) assay, PKA type Iα; type: biochemical
# [2] = target: T1, PKA type Iα (RIα/Cα) holoenzyme; experiment: Cook assay, activation (agonist) assay, RIα holoenzyme; type: biochemical; settings: Table 1 (Example 83), activation screen 10 μM analog
# [3] = tested on: Human peripheral T lymphocytes; experiment: T lymphocyte proliferation assay (anti-CD3 activated, [3H]thymidine); settings: Ex vivo testing in T lymphocytes
smiles,measurement,setting,value
Nc1ncnc2c1nc(-c1cc[nH]c1)n2[C@@H]1O[C@@H]2CO[P@@](=O)(S)O[C@H]2[C@H]1O,Antagonist,"[1]; Table 1 (Example 83), PKA type Iα",yes
same,relative potency*,[1]; antagonists relative to Rp-8Br-cAMPS,0.37
same,pIC50,"[1]; read-out: half-maximal antagonistic effect (IC50 or EC50), reversal of Sp-8-Br-cAMP-mediated PKA activation, 1 μM Sp-8-Br-cAMPS, 10 nM RIα holoenzyme",5.44
same,Agonist,[2],no
same,Agonist properties,[3],No
same,Antagonist properties,[3]; in presence of agonist Sp-8-Br-cAMPS,Yes
same,relative potency*,[3]; reference compounds = 1.00,0.11
